Data as given in patent US20160058735A1, “METHODS OF TREATING HYPERHIDROSIS” (Dermira, Inc., priority 2014, published 2016).

Assays:
[1] = test system: patients with severe primary axillary hyperhidrosis; conditions: 1-4% cohorts
Description: Assessments were conducted approximately weekly during the four-week treatment period and the two-week period after the end of this treatment period. […] Trial inclusion criteria required that prior to the start of treatment, all patients produce at least 50 mg of sweat in each axilla over a five-minute period.

[2] = test system: patients with severe primary axillary hyperhidrosis; assay: Study DRM04-HH01 (Phase 2b): HDSS improvement; type: in vivo, human; conditions: 1-4%, four weeks
Description: In Study DRM04-HH01, 198 patients with severe primary axillary hyperhidrosis were randomized to receive a topical formulation containing one of four concentrations of the reference agent (1%, 2%, 3% or 4%) or vehicle only. As in the Phase 2a clinical trial, patients were instructed to apply the study product once daily for four weeks using wipes saturated with either the topical formulation of the reference agent or vehicle only, and efficacy was evaluated based on axillary sweat production and the HDSS. Assessments were conducted approximately weekly during the four-week treatment period and the two-week period after the end of this treatment period. All 198 patients enrolled in the clinical trial rated the severity of their disease as a three or a four on the four-point HDSS prior to the start of treatment. […]
The two primary efficacy endpoints evaluated in this trial were (1) the proportion of patients achieving an improvement of at least two points from baseline in HDSS score and (2) the average absolute change from baseline in sweat production, each as measured at the end of the four-week treatment period. For the purpose of the primary endpoint pertaining to sweat production, sweat production was assessed in each patient as the average of the amounts of sweat produced in each axilla during a five-minute period.

C[N+]1(C)CCC(OC(=O)C(O)(c2ccccc2)C2CCCC2)C1.[Br-] (stereo not drawn) [reference agent, threo-glycopyrronium bromide]
frequency of dry mouth, dry skin and blurred vision by concentration [1]: generally observed more frequently in patients who received higher concentrations
both primary efficacy endpoints (HDSS improvement, sweat production) relative to vehicle [2]: dose-dependent and, at certain doses, statistically significant improvements relative to vehicle
